Source: the supplement of paper PMC10849652
The list shows a part of the results.

Chains of the proteins cited; added tags and fusions are not shown. Lines headed by an entry give the natural chain unless they say otherwise; changes in a name come on top.
UniProt Q8IZ83: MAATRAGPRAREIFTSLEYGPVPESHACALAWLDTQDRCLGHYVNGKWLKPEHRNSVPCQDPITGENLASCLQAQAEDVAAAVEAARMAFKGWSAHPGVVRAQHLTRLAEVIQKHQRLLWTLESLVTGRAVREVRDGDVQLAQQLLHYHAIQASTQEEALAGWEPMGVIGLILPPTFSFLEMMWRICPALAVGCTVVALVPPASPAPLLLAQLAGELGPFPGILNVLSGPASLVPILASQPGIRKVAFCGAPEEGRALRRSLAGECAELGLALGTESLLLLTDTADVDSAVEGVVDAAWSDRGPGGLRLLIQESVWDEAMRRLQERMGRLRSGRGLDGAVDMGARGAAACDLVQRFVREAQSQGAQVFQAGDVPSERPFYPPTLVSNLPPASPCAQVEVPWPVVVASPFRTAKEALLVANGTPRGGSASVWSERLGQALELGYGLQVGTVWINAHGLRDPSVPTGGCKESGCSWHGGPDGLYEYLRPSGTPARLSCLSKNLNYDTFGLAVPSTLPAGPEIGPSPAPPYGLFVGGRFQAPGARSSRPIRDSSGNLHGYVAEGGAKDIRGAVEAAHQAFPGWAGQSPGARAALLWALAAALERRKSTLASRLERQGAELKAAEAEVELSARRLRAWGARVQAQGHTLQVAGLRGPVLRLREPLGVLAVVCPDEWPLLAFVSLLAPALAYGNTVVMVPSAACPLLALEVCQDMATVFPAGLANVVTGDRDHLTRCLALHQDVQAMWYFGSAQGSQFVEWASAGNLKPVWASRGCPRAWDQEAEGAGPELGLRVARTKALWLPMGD
UniProt P30837: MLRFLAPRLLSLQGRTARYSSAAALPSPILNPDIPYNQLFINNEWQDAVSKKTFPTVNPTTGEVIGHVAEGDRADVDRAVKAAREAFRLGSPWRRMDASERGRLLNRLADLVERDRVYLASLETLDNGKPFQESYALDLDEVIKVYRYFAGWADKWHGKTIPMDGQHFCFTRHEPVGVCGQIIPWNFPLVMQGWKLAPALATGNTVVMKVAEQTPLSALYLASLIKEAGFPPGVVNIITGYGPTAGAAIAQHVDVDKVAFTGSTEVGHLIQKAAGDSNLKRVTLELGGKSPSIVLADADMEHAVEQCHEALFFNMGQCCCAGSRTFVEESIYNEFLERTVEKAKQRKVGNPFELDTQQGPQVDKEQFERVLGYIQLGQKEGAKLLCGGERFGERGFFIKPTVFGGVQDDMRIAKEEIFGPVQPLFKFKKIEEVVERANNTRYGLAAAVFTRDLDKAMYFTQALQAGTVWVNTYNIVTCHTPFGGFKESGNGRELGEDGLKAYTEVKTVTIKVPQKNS
UniProt Q96SZ5, whole entry, looked up: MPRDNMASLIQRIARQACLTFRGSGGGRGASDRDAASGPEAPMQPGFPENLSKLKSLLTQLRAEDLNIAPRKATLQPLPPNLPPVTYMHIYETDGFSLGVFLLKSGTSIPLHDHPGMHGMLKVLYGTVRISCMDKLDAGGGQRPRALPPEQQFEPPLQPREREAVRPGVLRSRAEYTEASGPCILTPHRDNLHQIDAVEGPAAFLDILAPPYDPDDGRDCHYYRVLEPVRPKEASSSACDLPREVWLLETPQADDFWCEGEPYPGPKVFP
UniProt Q9H6U8: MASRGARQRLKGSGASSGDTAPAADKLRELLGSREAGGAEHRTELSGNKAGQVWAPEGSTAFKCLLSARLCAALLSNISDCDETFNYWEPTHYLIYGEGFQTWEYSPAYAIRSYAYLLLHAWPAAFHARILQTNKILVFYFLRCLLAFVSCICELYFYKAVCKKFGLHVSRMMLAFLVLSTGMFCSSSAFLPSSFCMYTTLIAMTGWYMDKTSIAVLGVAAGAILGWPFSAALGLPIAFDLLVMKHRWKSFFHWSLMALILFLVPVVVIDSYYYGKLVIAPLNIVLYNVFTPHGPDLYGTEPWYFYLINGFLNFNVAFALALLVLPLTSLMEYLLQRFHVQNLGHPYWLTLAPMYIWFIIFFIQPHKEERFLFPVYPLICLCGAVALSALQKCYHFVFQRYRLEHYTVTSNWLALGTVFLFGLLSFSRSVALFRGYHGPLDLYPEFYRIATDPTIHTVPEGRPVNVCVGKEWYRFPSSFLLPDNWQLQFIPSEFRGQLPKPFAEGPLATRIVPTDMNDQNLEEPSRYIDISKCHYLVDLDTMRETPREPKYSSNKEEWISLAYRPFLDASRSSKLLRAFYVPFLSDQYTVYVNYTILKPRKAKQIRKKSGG
UniProt P04075: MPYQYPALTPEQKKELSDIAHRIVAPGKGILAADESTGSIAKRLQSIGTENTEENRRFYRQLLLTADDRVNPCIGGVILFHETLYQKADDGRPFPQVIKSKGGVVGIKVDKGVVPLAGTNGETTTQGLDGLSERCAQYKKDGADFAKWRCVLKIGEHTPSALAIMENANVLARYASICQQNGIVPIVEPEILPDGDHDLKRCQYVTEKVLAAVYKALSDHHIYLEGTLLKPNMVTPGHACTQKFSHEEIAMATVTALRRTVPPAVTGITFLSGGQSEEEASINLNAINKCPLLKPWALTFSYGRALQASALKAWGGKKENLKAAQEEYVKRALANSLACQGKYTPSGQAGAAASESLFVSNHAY
UniProt Q9H553: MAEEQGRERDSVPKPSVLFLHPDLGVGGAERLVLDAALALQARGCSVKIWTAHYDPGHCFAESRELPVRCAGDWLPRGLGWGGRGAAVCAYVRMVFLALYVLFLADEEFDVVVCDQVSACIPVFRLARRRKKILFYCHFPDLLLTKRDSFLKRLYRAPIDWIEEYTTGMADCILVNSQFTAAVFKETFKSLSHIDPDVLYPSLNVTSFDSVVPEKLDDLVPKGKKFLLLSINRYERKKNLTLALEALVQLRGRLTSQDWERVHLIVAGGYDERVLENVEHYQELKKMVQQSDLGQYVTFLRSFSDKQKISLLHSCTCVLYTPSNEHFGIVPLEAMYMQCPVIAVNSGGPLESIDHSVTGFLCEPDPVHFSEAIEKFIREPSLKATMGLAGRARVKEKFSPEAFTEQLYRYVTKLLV
UniProt P02771: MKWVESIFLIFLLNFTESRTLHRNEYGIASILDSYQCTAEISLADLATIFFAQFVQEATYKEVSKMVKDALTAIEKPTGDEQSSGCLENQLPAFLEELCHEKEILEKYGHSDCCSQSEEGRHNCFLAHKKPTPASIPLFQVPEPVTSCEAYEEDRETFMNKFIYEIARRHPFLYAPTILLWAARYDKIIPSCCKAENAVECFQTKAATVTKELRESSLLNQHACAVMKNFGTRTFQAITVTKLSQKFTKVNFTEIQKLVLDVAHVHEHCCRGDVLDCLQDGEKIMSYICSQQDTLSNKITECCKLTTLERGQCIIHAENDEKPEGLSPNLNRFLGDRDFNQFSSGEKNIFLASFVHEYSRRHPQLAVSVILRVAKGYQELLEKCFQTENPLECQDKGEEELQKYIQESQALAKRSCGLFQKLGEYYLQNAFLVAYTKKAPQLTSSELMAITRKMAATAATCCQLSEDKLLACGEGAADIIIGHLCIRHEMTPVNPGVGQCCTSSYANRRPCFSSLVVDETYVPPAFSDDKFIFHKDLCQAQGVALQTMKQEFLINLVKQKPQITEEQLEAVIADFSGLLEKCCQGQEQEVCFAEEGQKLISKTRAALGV
UniProt Q8N142: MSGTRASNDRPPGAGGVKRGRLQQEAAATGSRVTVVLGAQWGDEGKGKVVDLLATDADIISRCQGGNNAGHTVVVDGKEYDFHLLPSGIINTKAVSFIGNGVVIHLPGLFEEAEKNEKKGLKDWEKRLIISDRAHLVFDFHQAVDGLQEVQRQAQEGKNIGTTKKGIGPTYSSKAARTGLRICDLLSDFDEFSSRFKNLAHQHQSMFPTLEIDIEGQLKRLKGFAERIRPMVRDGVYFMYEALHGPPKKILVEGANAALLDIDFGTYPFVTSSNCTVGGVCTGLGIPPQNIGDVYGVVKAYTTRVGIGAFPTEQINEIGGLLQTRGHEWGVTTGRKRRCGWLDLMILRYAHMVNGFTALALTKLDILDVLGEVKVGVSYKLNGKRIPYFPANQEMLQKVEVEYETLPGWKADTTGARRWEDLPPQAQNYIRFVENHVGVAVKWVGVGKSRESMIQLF
UniProt Q9ULX6: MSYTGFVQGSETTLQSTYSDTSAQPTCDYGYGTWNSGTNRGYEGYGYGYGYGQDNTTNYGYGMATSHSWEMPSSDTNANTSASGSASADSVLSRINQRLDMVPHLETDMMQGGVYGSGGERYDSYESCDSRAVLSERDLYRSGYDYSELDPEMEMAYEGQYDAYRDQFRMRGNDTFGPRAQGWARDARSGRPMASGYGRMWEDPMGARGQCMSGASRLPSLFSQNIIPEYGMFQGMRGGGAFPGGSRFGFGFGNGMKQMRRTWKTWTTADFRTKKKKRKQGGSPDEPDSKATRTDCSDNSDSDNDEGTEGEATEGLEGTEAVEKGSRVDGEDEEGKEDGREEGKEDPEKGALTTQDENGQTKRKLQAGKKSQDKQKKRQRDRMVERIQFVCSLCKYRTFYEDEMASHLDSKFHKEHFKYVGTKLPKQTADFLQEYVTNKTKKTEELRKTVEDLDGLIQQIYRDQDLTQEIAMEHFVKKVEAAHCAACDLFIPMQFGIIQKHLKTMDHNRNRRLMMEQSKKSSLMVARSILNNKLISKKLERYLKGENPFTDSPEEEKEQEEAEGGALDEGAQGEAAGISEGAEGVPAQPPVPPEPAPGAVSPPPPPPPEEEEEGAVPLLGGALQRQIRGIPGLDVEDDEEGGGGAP
UniProt O43823: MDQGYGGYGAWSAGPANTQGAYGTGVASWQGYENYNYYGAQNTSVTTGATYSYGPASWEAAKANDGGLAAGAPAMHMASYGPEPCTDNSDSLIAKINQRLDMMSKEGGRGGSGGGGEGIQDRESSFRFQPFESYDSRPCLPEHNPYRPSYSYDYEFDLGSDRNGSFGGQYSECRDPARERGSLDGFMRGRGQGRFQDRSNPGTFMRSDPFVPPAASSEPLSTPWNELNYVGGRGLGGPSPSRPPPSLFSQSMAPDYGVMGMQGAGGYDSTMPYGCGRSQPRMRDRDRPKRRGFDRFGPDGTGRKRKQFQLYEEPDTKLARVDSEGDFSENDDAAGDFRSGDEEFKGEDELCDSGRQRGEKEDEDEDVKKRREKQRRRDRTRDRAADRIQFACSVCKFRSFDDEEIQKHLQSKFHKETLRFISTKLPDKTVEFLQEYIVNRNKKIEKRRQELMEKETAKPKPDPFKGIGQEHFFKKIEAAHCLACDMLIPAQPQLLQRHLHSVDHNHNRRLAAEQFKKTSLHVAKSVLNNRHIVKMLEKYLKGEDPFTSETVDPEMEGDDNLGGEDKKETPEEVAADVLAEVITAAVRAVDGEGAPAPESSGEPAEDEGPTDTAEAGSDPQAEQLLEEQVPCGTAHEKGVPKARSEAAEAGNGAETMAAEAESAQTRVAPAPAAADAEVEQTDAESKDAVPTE
UniProt Q13155: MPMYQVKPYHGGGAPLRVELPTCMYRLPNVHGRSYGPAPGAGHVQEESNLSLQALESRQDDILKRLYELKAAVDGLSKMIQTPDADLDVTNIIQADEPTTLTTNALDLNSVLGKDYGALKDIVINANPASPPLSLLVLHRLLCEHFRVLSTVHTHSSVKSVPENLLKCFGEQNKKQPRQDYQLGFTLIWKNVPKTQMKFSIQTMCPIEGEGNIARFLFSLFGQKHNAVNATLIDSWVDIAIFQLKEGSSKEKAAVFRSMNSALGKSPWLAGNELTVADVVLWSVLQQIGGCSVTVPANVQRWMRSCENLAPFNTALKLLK
UniProt Q9UKV8, whole entry, looked up: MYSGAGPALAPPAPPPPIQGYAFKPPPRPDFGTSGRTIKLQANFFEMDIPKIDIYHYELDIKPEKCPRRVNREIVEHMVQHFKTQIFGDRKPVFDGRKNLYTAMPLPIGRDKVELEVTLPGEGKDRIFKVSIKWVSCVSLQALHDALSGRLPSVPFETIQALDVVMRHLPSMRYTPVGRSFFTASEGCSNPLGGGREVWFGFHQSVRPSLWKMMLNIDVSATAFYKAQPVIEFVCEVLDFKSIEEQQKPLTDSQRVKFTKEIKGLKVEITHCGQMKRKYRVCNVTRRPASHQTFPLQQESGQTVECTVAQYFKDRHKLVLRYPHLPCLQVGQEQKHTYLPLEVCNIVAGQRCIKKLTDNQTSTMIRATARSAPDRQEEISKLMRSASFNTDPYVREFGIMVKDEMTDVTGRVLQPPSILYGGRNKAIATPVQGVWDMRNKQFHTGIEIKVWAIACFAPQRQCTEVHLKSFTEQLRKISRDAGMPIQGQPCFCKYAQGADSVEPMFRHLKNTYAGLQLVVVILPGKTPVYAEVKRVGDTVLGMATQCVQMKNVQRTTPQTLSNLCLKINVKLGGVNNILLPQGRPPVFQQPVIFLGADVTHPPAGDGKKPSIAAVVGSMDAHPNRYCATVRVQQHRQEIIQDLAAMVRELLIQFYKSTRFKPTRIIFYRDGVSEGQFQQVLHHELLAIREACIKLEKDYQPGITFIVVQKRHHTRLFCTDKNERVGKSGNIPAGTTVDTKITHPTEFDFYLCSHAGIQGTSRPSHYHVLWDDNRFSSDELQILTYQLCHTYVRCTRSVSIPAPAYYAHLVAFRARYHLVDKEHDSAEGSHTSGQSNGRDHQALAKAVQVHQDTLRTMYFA

Key:
Assay in all cases: log2 fold change, soluble protein after heating vs DMSO (PISA); higher = thermal stabilisation; K562 cells, 10 uM, 30 min; active = over 0.2 and 3.5 SD of the protein, either way, in both replicates (recomputed)
[1] = compound: COC1=CC=C(C=C1)CN2C=CC3=C2C=C(C=C3)C(=O)NO
Outline: (§1)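 For each measurement, 10 μM compound was applied for 30 min to K562 cells at 2×10^6 cells/mL. Aliquots were heated for 3 min across 48°C-58°C, pooled, and extracted in PBS with 0.5% NP-40 at 4°C; the supernatant after 21,000xg for 90 min was soluble protein. This was quantified by TMTpro 16plex LC-MS/MS with channel sums equalised, and thermal stability was reported relative to control samples from duplicates, on a log2 fold-change scale.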

[2] = compound: CON(C)C(=O)N1N=C(c2cc(F)ccc2F)S[C@@]1(CCCN)c1ccccc1 [filanesib]
Outline: as §1

[3] = compound: CO[C@H]1C[C@@H]2CC[C@@H](C)[C@@](O)(O2)C(=O)C(=O)N2CCCC[C@H]2C(=O)O[C@H]([C@H](C)C[C@@H]2CC[C@H](n3cnnn3)[C@H](OC)C2)CC(=O)[C@H](C)/C=C(\C)[C@@H](O)[C@@H](OC)C(=O)[C@H](C)C[C@H](C)/C=C/C=C/C=C/1C [zotarolimus]
Outline: as §1

[4] = compound: COc1cc(C(=O)O)ccc1NC(=O)[C@@H]1N[C@@H](CC(C)(C)C)[C@](C#N)(c2ccc(Cl)cc2F)[C@H]1c1cccc(Cl)c1F [idasanutlin]
Outline: as §1

[5] = compound: COc1cc(Nc2ncc3c(n2)-c2ccc(Cl)cc2C(c2c(F)cccc2OC)=NC3)ccc1C(=O)O [alisertib]
Outline: as §1

[6] = compound: COc1cc2nc(-c3cc(F)ccc3O)nc(N[C@@H]3CNC[C@H]3C(C)(C)O)c2cc1OC
Outline: as §1

[7] = compound: COc1cc2ncnc(Nc3ccc(F)c(Cl)c3)c2cc1OCCCN1CCOCC1 [gefitinib]
Outline: as §1

[8] = compound: COc1cccc2cc(-c3nc([C@H]4CC[C@H](C(=O)O)CC4)n4ncnc(N)c34)[nH]c12
Outline: as §1

[9] = compound: CS(=O)(=O)CCNCc1ccc(-c2ccc3ncnc(Nc4ccc(OCc5cccc(F)c5)c(Cl)c4)c3c2)o1 [lapatinib]
Outline: as §1

[10] = compound: CS(=O)(=O)N1CCN(Cc2cc3nc(-c4cccc5[nH]ncc45)nc(N4CCOCC4)c3s2)CC1 [pictilisib]
Outline: as §1

[11] = compound: CS(=O)(=O)c1ccc(-c2cnc(N)c(C(=O)Nc3ccccc3)n2)cc1
Outline: as §1

[12] = compound: C[C@@H](Oc1cc(-c2cnn(C3CCNCC3)c2)cnc1N)c1c(Cl)ccc(F)c1Cl [crizotinib]
Outline: as §1

[13] = compound: C[C@@H]1COCCN1C2=NC(=NC(=C2)C3(CC3)S(=O)(=O)C)C4=C5C=CNC5=CC=C4
Outline: as §1

[14] = compound: C[C@H](C1=CC=C(C=C1)C(=O)NC2=C3C=CNC3=NC=C2)N
Outline: as §1

[15] = compound: C[C@H](Nc1ncnc2nc[nH]c12)c1cc2cccc(Cl)c2c(=O)n1-c1ccccc1 [duvelisib]
Outline: as §1

[16] = compound: Cc1cc(Nc2cc(CN3CCOCC3)c3nc(C)c(Cc4ccc(Cl)cc4F)n3n2)n[nH]1 [gandotinib]
Outline: as §1

[17] = compound: Cc1cc(Nc2cc(N3CCN(C)CC3)nc(Sc3ccc(NC(=O)C4CC4)cc3)n2)n[nH]1 [tozasertib]
Outline: as §1

[18] = compound: Cc1cc(SCc2sc(-c3ccc(C(F)(F)F)cc3)nc2C)ccc1OCC(=O)O
Outline: as §1

[19] = compound: Cc1ccc(-n2nc(C(C)(C)C)cc2NC(=O)Nc2ccc(OCCN3CCOCC3)c3ccccc23)cc1 [doramapimod]
Outline: as §1

[20] = compound: Cc1ccc(C(=O)N(CCCN)[C@@H](c2nc3cc(Cl)ccc3c(=O)n2Cc2ccccc2)C(C)C)cc1 [ispinesib]
Outline: as §1

Measured: log2 fold change

ALDH16A1 (UniProt Q8IZ83)
inactive: [1] -0.01 | [2] -0.057 | [3] -0.018 | [4] -0.091 | [5] -0.027 | [6] 0.013 | [7] 0.009 | [8] 0.057 | [9] -0.013 | [10] 0.086 | [11] -0.006 | [12] 0.021 | [13] 0.069 | [14] -0.017 | [15] 0.028 | [16] 0.053 | [17] -0.035 | [18] -0.003 | [19] -0.016 | [20] 0.003

AK2 isoform 2 (UniProt P54819)
inactive: [1] -0.002 | [2] -0.023 | [3] -0.044 | [4] -0.008 | [5] -0.058 | [6] 0.008 | [7] 0.008 | [8] 0.019 | [9] -0.028 | [10] 0.072 | [11] 0.005 | [12] 0.037 | [13] 0.027 | [14] 0.015 | [15] 0.011 | [16] 0.009 | [17] -0.023 | [18] -0.037 | [19] 0 | [20] 0.004

AGO3 (UniProt Q9H9G7)
inactive: [1] -0.053 | [2] 0.059 | [3] -0.099 | [4] 0.044 | [5] -0.165 | [6] 0.022 | [7] 0.003 | [8] -0.041 | [9] 0.05 | [10] -0.062 | [11] -0.023 | [12] 0.031 | [13] -0.135 | [14] 0.279 | [15] -0.093 | [16] 0.193 | [17] 0.057 | [18] 0.181 | [19] 0.01 | [20] -0.033

2 entries drawn at random from the list so far, as already listed:
ALDH16A1 (UniProt Q8IZ83)
inactive: [1] -0.01 | [2] -0.057 | [3] -0.018 | [4] -0.091 | [5] -0.027 | [6] 0.013 | [7] 0.009 | [8] 0.057 | [9] -0.013 | [10] 0.086 | [11] -0.006 | [12] 0.021 | [13] 0.069 | [14] -0.017 | [15] 0.028 | [16] 0.053 | [17] -0.035 | [18] -0.003 | [19] -0.016 | [20] 0.003

AK2 isoform 2 (UniProt P54819)
inactive: [1] -0.002 | [2] -0.023 | [3] -0.044 | [4] -0.008 | [5] -0.058 | [6] 0.008 | [7] 0.008 | [8] 0.019 | [9] -0.028 | [10] 0.072 | [11] 0.005 | [12] 0.037 | [13] 0.027 | [14] 0.015 | [15] 0.011 | [16] 0.009 | [17] -0.023 | [18] -0.037 | [19] 0 | [20] 0.004

Going on with the list:

ALDOC (UniProt J3QKP5)
inactive: [1] -0.498 | [2] 0.257 | [3] -0.127 | [4] 0.05 | [5] 0.282 | [6] 0.098 | [7] 0.011 | [8] 0.059 | [9] -0.505 | [10] 0.211 | [11] 0.275 | [12] 0.106 | [13] -0.164 | [14] 0.394 | [15] 0 | [16] 0.258 | [17] -0.115 | [18] -0.348 | [19] -0.259 | [20] -0.537

ALDH1B1 (UniProt P30837)
inactive: [1] 0.051 | [2] -0.1 | [3] 0.029 | [4] -0.122 | [5] -0.045 | [6] -0.009 | [7] 0.091 | [8] 0.075 | [9] -0.003 | [10] 0.062 | [11] 0.054 | [12] -0.067 | [13] 0.12 | [14] -0.068 | [16] -0.025 | [18] 0.008 | [19] -0.006 | [20] 0.019

ADO (UniProt Q96SZ5)
inactive: [1] -0.048 | [2] -0.008 | [3] -0.026 | [4] 0.001 | [5] -0.072 | [6] -0.003 | [7] 0.008 | [8] 0.044 | [9] -0.023 | [10] 0.016 | [11] 0.006 | [12] 0.025 | [13] 0.095 | [14] -0.002 | [15] 0.024 | [16] 0.008 | [17] -0.021 | [18] -0.037 | [19] 0.009 | [20] 0.03

ALG9 isoform 3 (UniProt Q9H6U8)
inactive: [1] -0.084 | [2] -0.052 | [3] 0.034 | [4] 0.073 | [5] 0.022 | [6] -0.016 | [7] -0.02 | [8] 0.016 | [9] -0.052 | [10] -0.011 | [11] 0.117 | [12] -0.04 | [13] -0.054 | [14] 0.007 | [15] -0.005 | [16] -0.107 | [17] 0.021 | [18] -0.023 | [19] 0.049 | [20] 0.025

AKAP1 (UniProt Q92667)
inactive: [1] -0.015 | [2] 0.128 | [3] 0.082 | [4] 0.054 | [5] -0.064 | [6] -0.206 | [7] 0.024 | [8] -0.111 | [9] 0.072 | [10] 0.013 | [11] 0.007 | [12] -0.024 | [13] -0.08 | [14] 0.266 | [15] -0.028 | [16] -0.002 | [17] 0.023 | [18] 0.038 | [19] 0.082 | [20] -0.075

ALDOA isoform 2 (UniProt P04075)
inactive: [1] 0.045 | [2] -0.051 | [3] -0.015 | [4] 0 | [5] -0.039 | [6] -0.022 | [7] -0.02 | [8] 0.058 | [9] -0.025 | [10] -0.018 | [11] -0.025 | [12] -0.012 | [13] -0.004 | [14] -0.088 | [15] 0.004 | [16] 0.01 | [17] -0.017 | [18] -0.031 | [19] -0.007 | [20] 0.02

ALG2 (UniProt Q9H553)
inactive: [1] 0.02 | [2] 0.032 | [3] 0.037 | [4] -0.047 | [5] 0.06 | [6] 0.088 | [7] 0.043 | [8] 0.034 | [9] -0.024 | [10] 0.022 | [11] 0.05 | [12] 0.01 | [13] 0.071 | [14] -0.01 | [15] 0.027 | [16] 0.016 | [17] -0.047 | [18] 0.011 | [19] -0.019 | [20] 0.011

AFP (UniProt P02771)
inactive: [1] -0.068 | [2] 0.198 | [3] -0.107 | [4] 0.019 | [5] -0.129 | [6] -0.044 | [7] -0.112 | [8] 0.374 | [9] 0.021 | [10] -0.012 | [11] -0.249 | [12] -0.021 | [13] -0.136 | [14] 0.231 | [15] -0.39 | [16] 0.012 | [17] -0.06 | [18] -0.235 | [19] 0.207 | [20] -0.032

ADSS1 (UniProt Q8N142)
inactive: [1] -0.009 | [2] -0.06 | [3] -0.055 | [4] -0.129 | [5] 0.039 | [6] 0.161 | [7] 0.022 | [8] 0.026 | [9] 0.015 | [10] 0.056 | [11] 0.077 | [12] 0.011 | [13] 0.048 | [14] 0.012 | [15] -0.002 | [16] 0.016 | [17] -0.057 | [18] 0.032 | [19] 0.022 | [20] 0.005

AKAP8L (UniProt Q9ULX6)
inactive: [1] 0.032 | [2] 0.064 | [3] 0.097 | [4] 0.205 | [5] 0.041 | [6] -0.212 | [7] 0.008 | [8] 0.001 | [9] 0.034 | [10] 0.019 | [11] -0.036 | [12] -0.049 | [13] -0.066 | [14] -0.1 | [16] -0.007 | [18] 0.092 | [19] 0.047 | [20] -0.102

AKAP8 (UniProt O43823)
inactive: [1] 0.026 | [2] 0.035 | [3] -0.105 | [4] 0.052 | [5] -0.046 | [6] -0.002 | [7] -0.049 | [8] 0.067 | [9] 0.014 | [10] 0.101 | [11] 0.047 | [12] -0.104 | [13] 0.077 | [14] 0.062 | [16] -0.036 | [18] 0.061 | [19] 0.033 | [20] -0.103

AIMP2 (UniProt Q13155)
inactive: [1] -0.028 | [2] 0.194 | [3] 0.09 | [4] 0.272 | [5] -0.061 | [6] 0 | [7] -0.084 | [8] -0.236 | [9] 0.003 | [10] -0.147 | [11] 0.013 | [12] -0.079 | [13] -0.394 | [14] 0.465 | [15] -0.13 | [16] 0.175 | [17] -0.036 | [18] 0.072 | [19] 0.25 | [20] -0.223

AGO2 (UniProt Q9UKV8)
inactive: [1] 0.053 | [2] 0.057 | [3] -0.037 | [4] 0.037 | [5] -0.053 | [6] 0.037 | [7] -0.012 | [8] 0.06 | [9] 0.014 | [10] 0 | [11] -0.073 | [12] 0.096 | [13] -0.034 | [14] 0.033 | [15] 0.028 | [16] 0.064 | [17] -0.001 | [18] 0.037 | [19] -0.056 | [20] 0.036
